Values quoted from earlier work as cited in patent US20100136097A1, “Systems for modulating inflammation” (Searete LLC, a limited liability corporation of the State …, priority 2008, published 2010).
At least one compound was matched to its structure with a doubt left.

CCN(CC)C(=S)S [Diethyldithiocarbamate]
toxic: toxicity to malarial parasites (malarial parasites) | toxicity to Leishmania (Leishmania) | toxicity to Giardia (Giardia)
